# Some of the results follow.
# Sequences of proteins named here, by UniProt entry; tags and fusion partners are left off. A change or cut given only in a name is not applied to a line headed by its entry.
# UniProt Q8WWY3: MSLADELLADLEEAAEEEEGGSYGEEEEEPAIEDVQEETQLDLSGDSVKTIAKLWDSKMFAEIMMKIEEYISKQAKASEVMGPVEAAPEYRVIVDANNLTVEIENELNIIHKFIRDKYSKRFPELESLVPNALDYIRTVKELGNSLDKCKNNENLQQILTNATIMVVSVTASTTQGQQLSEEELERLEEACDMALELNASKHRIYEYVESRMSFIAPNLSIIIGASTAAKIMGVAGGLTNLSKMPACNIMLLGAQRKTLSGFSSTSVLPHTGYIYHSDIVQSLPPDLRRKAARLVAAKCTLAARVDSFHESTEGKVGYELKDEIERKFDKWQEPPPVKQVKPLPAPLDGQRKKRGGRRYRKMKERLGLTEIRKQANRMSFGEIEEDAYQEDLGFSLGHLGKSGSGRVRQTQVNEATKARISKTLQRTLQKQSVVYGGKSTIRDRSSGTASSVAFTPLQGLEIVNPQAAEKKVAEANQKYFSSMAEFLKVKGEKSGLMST
# UniProt Q6NYC8: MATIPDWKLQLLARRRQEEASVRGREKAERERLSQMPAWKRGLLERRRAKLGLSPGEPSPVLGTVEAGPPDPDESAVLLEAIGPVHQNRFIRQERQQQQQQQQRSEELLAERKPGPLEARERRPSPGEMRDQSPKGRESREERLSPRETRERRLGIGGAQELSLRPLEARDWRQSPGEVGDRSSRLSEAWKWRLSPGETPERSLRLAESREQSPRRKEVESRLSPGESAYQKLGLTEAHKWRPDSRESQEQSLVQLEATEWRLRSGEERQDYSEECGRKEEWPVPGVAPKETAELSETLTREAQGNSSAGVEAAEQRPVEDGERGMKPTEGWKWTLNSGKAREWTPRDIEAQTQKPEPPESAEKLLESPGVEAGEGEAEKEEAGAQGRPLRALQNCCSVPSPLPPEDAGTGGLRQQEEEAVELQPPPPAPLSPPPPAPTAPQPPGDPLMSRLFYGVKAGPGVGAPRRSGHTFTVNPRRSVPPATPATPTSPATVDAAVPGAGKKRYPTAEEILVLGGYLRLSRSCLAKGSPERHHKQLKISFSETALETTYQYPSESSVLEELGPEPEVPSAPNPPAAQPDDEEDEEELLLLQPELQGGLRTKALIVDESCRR
# UniProt Q8TAP8: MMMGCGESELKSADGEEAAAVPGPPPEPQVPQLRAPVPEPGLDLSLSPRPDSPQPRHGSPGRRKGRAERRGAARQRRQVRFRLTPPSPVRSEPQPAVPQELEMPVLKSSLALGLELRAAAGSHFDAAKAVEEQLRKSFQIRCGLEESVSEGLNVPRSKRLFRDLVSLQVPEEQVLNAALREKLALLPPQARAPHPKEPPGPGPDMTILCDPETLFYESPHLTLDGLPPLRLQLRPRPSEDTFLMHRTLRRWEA
# UniProt Q13427: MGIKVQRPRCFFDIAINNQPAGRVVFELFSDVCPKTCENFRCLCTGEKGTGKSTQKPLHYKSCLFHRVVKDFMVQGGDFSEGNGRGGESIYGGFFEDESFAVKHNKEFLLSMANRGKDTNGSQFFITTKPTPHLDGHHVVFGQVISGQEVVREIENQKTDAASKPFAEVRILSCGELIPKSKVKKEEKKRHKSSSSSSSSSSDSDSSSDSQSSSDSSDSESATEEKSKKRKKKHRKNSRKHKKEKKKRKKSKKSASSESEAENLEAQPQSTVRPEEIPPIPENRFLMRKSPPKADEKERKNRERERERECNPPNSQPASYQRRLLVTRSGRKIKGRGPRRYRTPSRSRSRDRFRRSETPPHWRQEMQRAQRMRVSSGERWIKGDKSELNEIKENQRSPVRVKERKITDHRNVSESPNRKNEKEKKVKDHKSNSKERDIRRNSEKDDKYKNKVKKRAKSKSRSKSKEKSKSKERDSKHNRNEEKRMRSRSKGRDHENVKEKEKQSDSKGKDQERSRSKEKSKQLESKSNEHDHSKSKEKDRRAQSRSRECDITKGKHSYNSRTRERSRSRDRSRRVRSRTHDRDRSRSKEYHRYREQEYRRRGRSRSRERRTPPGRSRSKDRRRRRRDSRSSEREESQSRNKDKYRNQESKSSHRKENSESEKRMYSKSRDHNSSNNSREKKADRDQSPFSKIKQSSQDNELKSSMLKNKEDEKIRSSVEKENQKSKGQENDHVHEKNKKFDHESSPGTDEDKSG
# UniProt O15355: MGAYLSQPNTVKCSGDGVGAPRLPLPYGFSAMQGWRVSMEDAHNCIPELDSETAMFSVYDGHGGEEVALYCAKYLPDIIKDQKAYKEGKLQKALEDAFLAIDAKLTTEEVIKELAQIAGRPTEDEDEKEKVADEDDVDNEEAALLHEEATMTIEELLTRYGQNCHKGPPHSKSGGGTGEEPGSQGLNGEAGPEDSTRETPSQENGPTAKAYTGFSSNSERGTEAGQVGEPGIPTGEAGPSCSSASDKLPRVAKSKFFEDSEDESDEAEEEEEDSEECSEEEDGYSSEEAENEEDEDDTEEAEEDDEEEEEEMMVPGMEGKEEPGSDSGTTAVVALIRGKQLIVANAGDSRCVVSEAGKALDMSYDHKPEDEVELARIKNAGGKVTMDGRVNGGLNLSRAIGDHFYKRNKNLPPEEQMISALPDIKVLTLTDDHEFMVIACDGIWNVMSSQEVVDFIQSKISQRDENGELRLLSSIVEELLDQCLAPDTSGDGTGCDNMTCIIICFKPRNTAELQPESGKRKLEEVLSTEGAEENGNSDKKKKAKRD
# UniProt Q13362, whole entry, looked up: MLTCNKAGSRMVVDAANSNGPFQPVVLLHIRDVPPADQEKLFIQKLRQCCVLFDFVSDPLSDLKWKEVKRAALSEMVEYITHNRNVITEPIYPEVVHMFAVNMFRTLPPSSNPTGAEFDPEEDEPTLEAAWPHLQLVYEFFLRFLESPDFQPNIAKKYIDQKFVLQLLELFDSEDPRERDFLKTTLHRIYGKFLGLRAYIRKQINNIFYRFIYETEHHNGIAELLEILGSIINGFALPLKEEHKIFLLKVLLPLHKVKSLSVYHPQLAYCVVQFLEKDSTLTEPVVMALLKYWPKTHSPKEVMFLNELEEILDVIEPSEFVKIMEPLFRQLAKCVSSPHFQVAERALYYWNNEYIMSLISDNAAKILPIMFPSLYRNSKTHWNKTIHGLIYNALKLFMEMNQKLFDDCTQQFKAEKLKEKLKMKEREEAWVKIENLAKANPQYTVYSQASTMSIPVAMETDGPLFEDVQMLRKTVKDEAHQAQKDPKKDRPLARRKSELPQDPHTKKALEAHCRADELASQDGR
# UniProt P48454, whole entry, looked up: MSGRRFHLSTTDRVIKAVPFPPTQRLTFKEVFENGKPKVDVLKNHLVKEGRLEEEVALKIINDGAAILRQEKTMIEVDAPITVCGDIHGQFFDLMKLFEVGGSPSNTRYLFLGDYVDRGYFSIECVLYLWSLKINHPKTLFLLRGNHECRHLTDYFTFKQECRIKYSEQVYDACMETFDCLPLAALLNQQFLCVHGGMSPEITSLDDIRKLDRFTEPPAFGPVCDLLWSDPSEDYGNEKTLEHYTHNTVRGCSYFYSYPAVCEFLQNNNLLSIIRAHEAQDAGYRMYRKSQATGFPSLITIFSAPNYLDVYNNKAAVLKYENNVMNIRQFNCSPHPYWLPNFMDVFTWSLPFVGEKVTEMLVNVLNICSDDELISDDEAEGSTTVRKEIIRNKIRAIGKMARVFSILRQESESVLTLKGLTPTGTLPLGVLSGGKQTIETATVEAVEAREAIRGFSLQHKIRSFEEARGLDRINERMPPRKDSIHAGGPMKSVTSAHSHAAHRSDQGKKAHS
# UniProt O15091: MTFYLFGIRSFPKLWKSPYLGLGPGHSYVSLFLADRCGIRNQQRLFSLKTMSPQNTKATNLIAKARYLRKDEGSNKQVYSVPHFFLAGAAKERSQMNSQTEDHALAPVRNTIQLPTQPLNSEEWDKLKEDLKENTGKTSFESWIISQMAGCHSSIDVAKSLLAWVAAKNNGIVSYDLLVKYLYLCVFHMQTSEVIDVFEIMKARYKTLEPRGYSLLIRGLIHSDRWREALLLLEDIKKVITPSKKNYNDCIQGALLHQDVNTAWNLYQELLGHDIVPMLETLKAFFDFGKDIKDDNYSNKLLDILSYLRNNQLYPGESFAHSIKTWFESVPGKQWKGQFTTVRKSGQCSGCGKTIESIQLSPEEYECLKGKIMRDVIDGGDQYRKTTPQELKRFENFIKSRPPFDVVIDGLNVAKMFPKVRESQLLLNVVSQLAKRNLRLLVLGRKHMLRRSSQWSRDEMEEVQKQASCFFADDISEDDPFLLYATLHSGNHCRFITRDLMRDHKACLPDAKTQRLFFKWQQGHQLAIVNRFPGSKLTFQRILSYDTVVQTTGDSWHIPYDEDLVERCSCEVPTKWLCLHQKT
# UniProt Q99873, whole entry, looked up: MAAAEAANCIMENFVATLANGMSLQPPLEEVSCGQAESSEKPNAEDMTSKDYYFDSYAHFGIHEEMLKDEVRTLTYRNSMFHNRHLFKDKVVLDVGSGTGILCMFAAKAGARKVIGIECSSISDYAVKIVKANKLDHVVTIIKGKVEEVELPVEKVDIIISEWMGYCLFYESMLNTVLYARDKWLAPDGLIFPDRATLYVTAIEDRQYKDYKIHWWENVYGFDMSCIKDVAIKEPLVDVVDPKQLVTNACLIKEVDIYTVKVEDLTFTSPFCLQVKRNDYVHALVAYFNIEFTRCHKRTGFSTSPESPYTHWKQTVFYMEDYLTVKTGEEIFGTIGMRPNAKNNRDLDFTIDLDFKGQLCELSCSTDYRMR
# UniProt Q96A00: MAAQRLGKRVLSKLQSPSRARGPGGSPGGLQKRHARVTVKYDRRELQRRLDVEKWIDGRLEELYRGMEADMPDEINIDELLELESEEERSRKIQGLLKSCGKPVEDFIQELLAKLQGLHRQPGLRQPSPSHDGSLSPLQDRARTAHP
# UniProt P50336: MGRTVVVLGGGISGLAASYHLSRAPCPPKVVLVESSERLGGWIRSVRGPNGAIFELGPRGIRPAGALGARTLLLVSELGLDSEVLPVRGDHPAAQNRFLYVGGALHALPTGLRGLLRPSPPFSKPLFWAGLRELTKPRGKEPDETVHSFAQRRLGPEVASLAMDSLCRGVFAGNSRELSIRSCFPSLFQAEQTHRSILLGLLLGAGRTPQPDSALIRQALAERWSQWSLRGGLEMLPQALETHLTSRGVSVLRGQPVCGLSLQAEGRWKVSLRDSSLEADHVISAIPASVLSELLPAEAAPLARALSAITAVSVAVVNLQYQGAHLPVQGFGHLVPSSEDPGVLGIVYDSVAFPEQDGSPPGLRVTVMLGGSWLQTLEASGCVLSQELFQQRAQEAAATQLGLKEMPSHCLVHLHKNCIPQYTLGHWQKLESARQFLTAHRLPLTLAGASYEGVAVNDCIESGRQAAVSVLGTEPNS
# UniProt Q4J6C6, whole entry, looked up: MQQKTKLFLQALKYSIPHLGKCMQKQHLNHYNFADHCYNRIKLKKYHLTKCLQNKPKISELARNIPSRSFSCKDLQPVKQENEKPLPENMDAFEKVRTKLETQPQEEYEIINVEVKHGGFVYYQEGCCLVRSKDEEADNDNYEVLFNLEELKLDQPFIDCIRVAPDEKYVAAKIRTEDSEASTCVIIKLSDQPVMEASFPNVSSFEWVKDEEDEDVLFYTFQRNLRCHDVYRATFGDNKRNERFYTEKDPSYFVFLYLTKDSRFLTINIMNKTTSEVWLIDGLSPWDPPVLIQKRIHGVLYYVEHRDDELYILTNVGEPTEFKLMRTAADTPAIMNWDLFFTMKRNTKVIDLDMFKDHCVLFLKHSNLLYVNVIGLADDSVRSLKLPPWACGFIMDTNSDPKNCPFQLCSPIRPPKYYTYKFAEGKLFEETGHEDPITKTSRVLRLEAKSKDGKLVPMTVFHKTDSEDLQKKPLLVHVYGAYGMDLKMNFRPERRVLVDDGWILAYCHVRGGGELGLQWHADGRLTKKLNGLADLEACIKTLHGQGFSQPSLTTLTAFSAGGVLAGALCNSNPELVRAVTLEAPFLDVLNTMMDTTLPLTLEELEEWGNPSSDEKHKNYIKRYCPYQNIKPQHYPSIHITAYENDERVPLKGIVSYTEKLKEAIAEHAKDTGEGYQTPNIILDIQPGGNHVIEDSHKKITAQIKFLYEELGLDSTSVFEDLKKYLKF
# UniProt P54619: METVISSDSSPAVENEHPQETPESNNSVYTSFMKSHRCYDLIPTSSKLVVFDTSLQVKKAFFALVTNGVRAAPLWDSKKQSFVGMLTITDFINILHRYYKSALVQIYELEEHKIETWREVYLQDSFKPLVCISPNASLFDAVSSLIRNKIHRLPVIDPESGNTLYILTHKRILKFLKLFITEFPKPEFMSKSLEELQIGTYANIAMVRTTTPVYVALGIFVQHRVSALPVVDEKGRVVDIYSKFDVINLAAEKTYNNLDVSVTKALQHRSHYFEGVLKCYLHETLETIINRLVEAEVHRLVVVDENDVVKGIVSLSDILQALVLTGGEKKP
# UniProt P30044: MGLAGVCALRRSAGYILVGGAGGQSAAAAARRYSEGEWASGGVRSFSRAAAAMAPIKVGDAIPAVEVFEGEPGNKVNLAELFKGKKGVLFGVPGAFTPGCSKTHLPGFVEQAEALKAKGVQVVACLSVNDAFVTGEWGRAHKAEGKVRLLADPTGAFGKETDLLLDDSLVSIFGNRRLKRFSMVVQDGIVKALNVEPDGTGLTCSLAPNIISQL
# Experiments:
# Assay in all cases: log2 fold change, soluble protein after heating vs DMSO (PISA); higher = thermal stabilisation; K562 lysate, 10 uM; active = over 0.2 and 3.5 SD of the protein, either way, in both replicates (recomputed)
# alvocidib = compound: CN1CC[C@H](c2c(O)cc(O)c3c(=O)cc(-c4ccccc4Cl)oc23)[C@H](O)C1 [alvocidib]
# Method in brief: (§1)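 Log-two fold change in thermal stability relative to solvent controls is reported from duplicates. For each sample, crude K562 extract from dounce-homogenised pellets in PBS pH 7.4 with 1 mM MgCl2, at 1 mg/mL protein, was treated with 10 μM compound for 30 min. Aliquots heated for 3 min across 48°C-58°C were pooled, brought to 0.5% NP-40 at 4°C and cleared at 21,000xg for 90 min. The supernatant was quantified by TMTpro 16plex LC-MS/MS with channel sums equalised.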
# Tubastatin A = compound: CN1CCc2c(c3ccccc3n2Cc2ccc(C(=O)NO)cc2)C1 [Tubastatin A]
# Method in brief: as §1
# [1] = compound: CNC(=O)C1=CC=CC=C1NC2=NC(=NC=C2Cl)NC3=C(C=C(C=C3)N4CCOCC4)OC
# Method in brief: as §1
# defactinib = compound: CNC(=O)c1ccc(Nc2ncc(C(F)(F)F)c(NCc3nccnc3N(C)S(C)(=O)=O)n2)cc1 [defactinib]
# Method in brief: as §1
# [2] = compound: CNc1nc(-c2ccc3c(N)n[nH]c3c2)cc(N2C[C@@H](C(=O)NC3CCCCC3)CC[C@H]2C)n1
# Method in brief: as §1
# encorafenib = compound: COC(=O)N[C@@H](C)CNc1nccc(-c2cn(C(C)C)nc2-c2cc(Cl)cc(NS(C)(=O)=O)c2F)n1 [encorafenib]
# Method in brief: as §1
# [3] = compound: COC(=O)[C@H](CCSC)NC(=O)C1=C(C=C(C=C1)NC[C@H](CS)N)C2=CC=CC=C2
# Method in brief: as §1
# alisertib = compound: COc1cc(Nc2ncc3c(n2)-c2ccc(Cl)cc2C(c2c(F)cccc2OC)=NC3)ccc1C(=O)O [alisertib]
# Method in brief: as §1
# [4] = compound: COc1cc2nc(-c3cc(F)ccc3O)nc(N[C@@H]3CNC[C@H]3C(C)(C)O)c2cc1OC
# Method in brief: as §1
# gefitinib = compound: COc1cc2ncnc(Nc3ccc(F)c(Cl)c3)c2cc1OCCCN1CCOCC1 [gefitinib]
# Method in brief: as §1
# lapatinib = compound: CS(=O)(=O)CCNCc1ccc(-c2ccc3ncnc(Nc4ccc(OCc5cccc(F)c5)c(Cl)c4)c3c2)o1 [lapatinib]
# Method in brief: as §1
# pictilisib = compound: CS(=O)(=O)N1CCN(Cc2cc3nc(-c4cccc5[nH]ncc45)nc(N4CCOCC4)c3s2)CC1 [pictilisib]
# Method in brief: as §1
# crizotinib = compound: C[C@@H](Oc1cc(-c2cnn(C3CCNCC3)c2)cnc1N)c1c(Cl)ccc(F)c1Cl [crizotinib]
# Method in brief: as §1
# [5] = compound: C[C@H](C1=CC=C(C=C1)C(=O)NC2=C3C=CNC3=NC=C2)N
# Method in brief: as §1
# duvelisib = compound: C[C@H](Nc1ncnc2nc[nH]c12)c1cc2cccc(Cl)c2c(=O)n1-c1ccccc1 [duvelisib]
# Method in brief: as §1
# gandotinib = compound: Cc1cc(Nc2cc(CN3CCOCC3)c3nc(C)c(Cc4ccc(Cl)cc4F)n3n2)n[nH]1 [gandotinib]
# Method in brief: as §1
# tozasertib = compound: Cc1cc(Nc2cc(N3CCN(C)CC3)nc(Sc3ccc(NC(=O)C4CC4)cc3)n2)n[nH]1 [tozasertib]
# Method in brief: as §1
# doramapimod = compound: Cc1ccc(-n2nc(C(C)(C)C)cc2NC(=O)Nc2ccc(OCCN3CCOCC3)c3ccccc23)cc1 [doramapimod]
# Method in brief: as §1
# bafetinib = compound: Cc1ccc(NC(=O)c2ccc(CN3CC[C@H](N(C)C)C3)c(C(F)(F)F)c2)cc1Nc1nccc(-c2cncnc2)n1 [bafetinib]
# Method in brief: as §1
# [6] = compound: Cc1cccc(CC(=O)N2CCc3c2ccc(-c2cn(C)c4ncnc(N)c24)c3F)n1
# Method in brief: as §1
Target,log2 fold change (alvocidib),log2 fold change (Tubastatin A),log2 fold change [1],log2 fold change (defactinib),log2 fold change [2],log2 fold change (encorafenib),log2 fold change [3],log2 fold change (alisertib),log2 fold change [4],log2 fold change (gefitinib),log2 fold change (lapatinib),log2 fold change (pictilisib),log2 fold change (crizotinib),log2 fold change [5],log2 fold change (duvelisib),log2 fold change (gandotinib),log2 fold change (tozasertib),log2 fold change (doramapimod),log2 fold change (bafetinib),log2 fold change [6]
PRPF31 (UniProt Q8WWY3),inactive: 0.023,inactive: -0.146,inactive: 0.012,inactive: 0.057,inactive: -0.041,inactive: -0.013,inactive: 0.014,inactive: 0,inactive: -0.027,inactive: 0.007,inactive: 0.013,inactive: 0.029,inactive: -0.014,inactive: 0.014,inactive: -0.017,inactive: -0.032,inactive: -0.008,inactive: 0.02,inactive: 0.017,inactive: -0.018
PPP1R18 (UniProt Q6NYC8),inactive: 0,inactive: 0.022,inactive: 0.025,inactive: 0.002,inactive: 0.055,inactive: 0.015,inactive: 0.006,inactive: 0.011,inactive: 0.009,inactive: 0.027,inactive: -0.021,inactive: -0.008,inactive: 0.03,inactive: 0.008,inactive: -0.048,inactive: 0.025,inactive: -0.014,inactive: 0.005,inactive: 0.006,inactive: -0.002
PPP1R35 (UniProt Q8TAP8),inactive: -0.147,inactive: 0.022,inactive: 0.032,inactive: -0.023,inactive: -0.025,inactive: 0.099,inactive: -0.025,inactive: -0.06,inactive: -0.026,inactive: -0.084,inactive: 0.084,inactive: 0.004,inactive: 0.128,inactive: -0.019,inactive: 0.142,inactive: 0.058,inactive: -0.038,inactive: -0.014,inactive: -0.046,inactive: 0.074
PPIG (UniProt Q13427),inactive: -0.071,inactive: -0.003,inactive: -0.09,inactive: -0.077,inactive: 0.042,inactive: 0.126,inactive: -0.004,inactive: -0.035,inactive: 0.021,inactive: -0.069,inactive: 0.016,inactive: -0.047,inactive: -0.095,inactive: -0.111,inactive: 0.049,inactive: 0.01,inactive: 0.048,inactive: 0.022,inactive: 0.126,inactive: 0.157
PPM1G (UniProt O15355),inactive: 0.029,inactive: -0.013,inactive: -0.005,inactive: 0.035,inactive: -0.043,inactive: 0.017,inactive: 0.043,inactive: 0.008,inactive: -0.004,inactive: 0.012,inactive: -0.003,inactive: 0.036,inactive: 0.043,inactive: 0.066,inactive: 0.006,inactive: -0.057,inactive: 0.021,inactive: -0.015,inactive: 0.024,inactive: -0.021
PPP2R5C isoform 4 (UniProt Q13362),inactive: 0.059,inactive: -0.014,inactive: -0.022,inactive: -0.01,inactive: -0.08,inactive: -0.03,inactive: -0.047,inactive: -0.036,inactive: 0.009,inactive: -0.007,inactive: -0.05,inactive: 0,inactive: 0.015,inactive: -0.051,inactive: 0.213,inactive: -0.034,inactive: 0.025,inactive: -0.11,inactive: -0.077,inactive: 0.055
PPP3CC (UniProt P48454),inactive: 0.013,inactive: 0.004,inactive: -0.027,inactive: -0.017,inactive: -0.008,inactive: 0.073,inactive: -0.004,inactive: 0.014,inactive: 0.03,inactive: 0.005,inactive: -0.031,inactive: -0.005,inactive: 0.008,inactive: -0.06,inactive: -0.021,inactive: 0.017,inactive: -0.008,inactive: 0.059,inactive: -0.068,inactive: 0.014
PRORP (UniProt O15091),inactive: -0.05,inactive: -0.159,inactive: -0.042,inactive: 0,inactive: -0.015,inactive: -0.012,inactive: 0.152,inactive: 0.199,inactive: -0.046,inactive: -0.054,inactive: 0.039,inactive: 0.147,inactive: -0.048,inactive: -0.118,inactive: 0.157,inactive: 0.06,inactive: 0.14,inactive: 0.036,inactive: 0.164,inactive: 0.095
PRMT1 (UniProt Q99873),inactive: -0.074,inactive: -0.046,inactive: -0.011,inactive: -0.028,inactive: 0.03,inactive: -0.013,inactive: -0.035,inactive: 0.015,inactive: 0.023,inactive: -0.02,inactive: 0,inactive: 0.002,inactive: -0.042,inactive: -0.161,inactive: 0.017,inactive: 0.076,inactive: 0.007,inactive: 0.038,inactive: -0.005,inactive: 0.103
PPIL4 (UniProt Q8WUA2),inactive: 0.002,inactive: -0.018,inactive: 0.041,inactive: -0.014,inactive: 0.018,inactive: 0.02,inactive: 0.089,inactive: -0.009,inactive: 0.003,inactive: 0.015,inactive: -0.018,inactive: 0.026,inactive: -0.014,inactive: -0.032,inactive: -0.003,inactive: 0.008,inactive: 0.033,inactive: 0.038,inactive: -0.023,inactive: 0.036
PPP1R14A (UniProt Q96A00),inactive: -0.016,inactive: 0.054,inactive: -0.026,inactive: -0.003,inactive: 0.089,inactive: 0.002,inactive: 0.002,inactive: 0.028,inactive: 0.052,inactive: -0.026,inactive: -0.016,inactive: -0.008,inactive: 0.015,inactive: -0.078,inactive: -0.005,inactive: 0.069,inactive: 0.021,inactive: 0.013,inactive: -0.018,inactive: 0.03
PPOX (UniProt P50336),inactive: -0.004,inactive: -0.124,inactive: 0.257,inactive: -0.03,inactive: 0.107,inactive: -0.017,inactive: 0.076,inactive: 0.005,inactive: -0.035,inactive: -0.043,active: 0.379,inactive: 0.111,inactive: -0.068,inactive: -0.075,inactive: 0.04,active: 0.581,inactive: 0.003,inactive: 0.206,inactive: -0.028,inactive: 0.11
PREPL (UniProt Q4J6C6),inactive: -0.002,inactive: 0.034,inactive: -0.01,inactive: 0.006,inactive: -0.017,inactive: 0.002,inactive: -0.02,inactive: -0.027,inactive: -0.002,inactive: 0.002,inactive: 0.021,inactive: 0.016,inactive: 0.01,inactive: 0.005,inactive: 0.001,inactive: -0.023,inactive: 0.018,inactive: -0.014,inactive: -0.036,inactive: 0.002
PRKAG1 (UniProt P54619),inactive: 0.047,inactive: -0.024,inactive: 0.182,inactive: 0.116,inactive: -0.032,inactive: -0.016,inactive: -0.08,inactive: 0,inactive: 0.099,inactive: -0.01,inactive: -0.03,inactive: 0.07,inactive: -0.043,inactive: -0.033,inactive: -0.003,inactive: 0.136,inactive: 0.109,inactive: 0.012,inactive: -0.071,inactive: -0.018
PRKACA (UniProt P17612),inactive: -0.118,inactive: 0.008,inactive: 0.034,inactive: 0.177,inactive: 0.082,inactive: -0.052,inactive: -0.059,inactive: 0.027,active: 0.558,inactive: -0.01,inactive: -0.008,inactive: -0.012,inactive: 0.022,inactive: -0.159,inactive: -0.059,inactive: 0.115,inactive: -0.12,inactive: -0.113,inactive: -0.073,inactive: 0.151
PRDX5 (UniProt P30044),inactive: 0.032,inactive: 0.036,inactive: -0.007,inactive: 0.01,inactive: 0.013,inactive: -0.009,inactive: -0.019,inactive: 0,inactive: 0.002,inactive: -0.016,inactive: -0.023,inactive: 0.015,inactive: 0.011,inactive: 0.048,inactive: 0.009,inactive: 0.002,inactive: -0.029,inactive: 0.017,inactive: 0.045,inactive: -0.016

# Source: the supplement of paper PMC10849652
